The values below come from paper PMC11009110.

By UniProt entry, the sequences of proteins in these tests, tags left out.
UniProt O60925: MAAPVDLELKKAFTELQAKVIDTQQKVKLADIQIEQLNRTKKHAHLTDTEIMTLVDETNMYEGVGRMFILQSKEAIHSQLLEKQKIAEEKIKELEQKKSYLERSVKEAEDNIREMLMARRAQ
UniProt Q99471: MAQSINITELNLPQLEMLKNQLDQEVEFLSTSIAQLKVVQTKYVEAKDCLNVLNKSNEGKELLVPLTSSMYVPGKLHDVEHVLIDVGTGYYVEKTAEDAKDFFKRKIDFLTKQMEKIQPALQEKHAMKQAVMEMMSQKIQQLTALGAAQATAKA
UniProt Q9NQP4: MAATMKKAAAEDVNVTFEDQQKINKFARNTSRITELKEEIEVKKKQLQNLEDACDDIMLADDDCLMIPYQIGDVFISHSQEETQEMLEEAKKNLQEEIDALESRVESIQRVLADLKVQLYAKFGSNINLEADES
UniProt P61758: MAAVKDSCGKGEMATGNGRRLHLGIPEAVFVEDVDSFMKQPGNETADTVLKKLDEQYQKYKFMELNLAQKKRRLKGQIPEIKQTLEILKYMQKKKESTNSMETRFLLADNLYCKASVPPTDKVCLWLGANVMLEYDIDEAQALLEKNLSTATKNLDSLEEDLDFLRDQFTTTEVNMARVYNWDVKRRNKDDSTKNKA
UniProt P62879: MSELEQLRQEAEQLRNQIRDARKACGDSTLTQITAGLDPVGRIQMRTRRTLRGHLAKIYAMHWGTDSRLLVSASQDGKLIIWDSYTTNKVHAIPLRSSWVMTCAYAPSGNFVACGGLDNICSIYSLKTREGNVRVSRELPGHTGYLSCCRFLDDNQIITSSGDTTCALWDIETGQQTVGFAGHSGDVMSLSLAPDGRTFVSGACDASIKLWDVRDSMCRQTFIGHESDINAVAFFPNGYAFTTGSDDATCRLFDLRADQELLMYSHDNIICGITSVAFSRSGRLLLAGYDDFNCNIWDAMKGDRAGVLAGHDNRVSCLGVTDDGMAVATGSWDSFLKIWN

In experiment [1] the target is UXT (human) (UniProt Q9UBK9). In words: affinity purification with mass spectrometry + native gel or EMSA; DIP-MS: Strep-Tactin Sepharose purification of the SH-tagged bait (PFDN2 or UXT) from HEK293 lysate (HNN-lysis buffer: 50 mM HEPES, 100 mM NaCl, 50 mM NaF, pH 7.4, 0.5% NP40, benzonase), elution with 2 mM biotin, blue-native PAGE 3-12% Bis-Tris at 4 °C, 1 mm gel slices, DIA-MS; coelution scored with PPIprophet; triplicates for each bait. For orientation: Mobility shift assays separate free from complexed probe on a gel.

Experiment [2] deals with PFDN2 (human) (UniProt Q9UHV9). The experiment is described as above.
Experiment [3] deals with PFDN1 (human) (UniProt O60925). In words: affinity purification with mass spectrometry; reciprocal AP-MS of twin-Strep and HA (SH)-tagged baits (11 core subunits of PFD and PFDL containing PAQosome complexes) from cell lines, triplicates, DDA; SAINTExpress scoring against GFP controls.
Experiment [4] addresses PFDN5 (human) (UniProt Q99471). The description is as above.
The target of experiment [5] is PFDN2 (human) (UniProt Q9UHV9). The experiment is described as above.
Experiment [6] deals with PFDN4 (human) (UniProt Q9NQP4). Described as above.
In experiment [7] the target is VBP1 (human) (UniProt P61758). Described as above.

Results are given in words; binding and its absence hold for the method and conditions named. In cells and extracts the contact can be indirect. Here binding means that the protein was enriched with, or labelled near, the bait; the list need not be complete. For some of these results: No binding means not detected with the bait.

In the case of RUVBL1 (from UniProt Q9Y265 1-456), the binding result in experiment [1] and in experiment [2] was “binds” each time.

For the substance PFDN1 (from UniProt O60925 1-122), the binding result in experiment [1] is listed as “no binding”; in experiment [2], “binds”.

As for PFDN6 (from UniProt O15212 1-129), the binding result in experiment [1] and in experiment [2] was “binds” each time.

Turning to WDR92 (from UniProt Q96MX6 1-357), the binding entry in experiment [1] and in experiment [2] was “binds” throughout.

For the substance GNB2 (from UniProt P62879 1-340), the binding entry in experiment [2], in experiment [3], in experiment [4] and in experiment [5] was “binds” each time.

PFDN5 (from UniProt Q99471 1-154): in experiment [2], the binding result was “binds”.

For PFDN2 (from UniProt Q9UHV9 1-154), in experiment [1], the binding entry is recorded as “binds”.

With VBP1 (from UniProt P61758 1-197), the binding result in experiment [1] is given as “no binding”.

Turning to PFDN4 (from UniProt Q9NQP4 1-134), the binding result is on record as “no binding” in experiment [1] and “binds” in experiment [2].

For ASDURF (from UniProt L0R819 1-96), the binding result in experiment [1] and in experiment [2] was “binds” each time.

As to PDRG1 (from UniProt Q9NUG6 1-133), the binding result in experiment [1] was “binds”; in experiment [2], “binds”; in experiment [3], “binds”; in experiment [4], “binds”; in experiment [6] it was “no binding”; in experiment [7], “binds”.
